# Library screening results

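Viability assay of Plasmodium falciparum sporozoites; the read-out is not stated. The concentration is filed as 10 mM, unlikely as a test dose, so the dose is not known. The record gives no direction; compounds that gave an IC50 in retests scored well above the rest, so higher reads as lower viability. Strong results were mostly tested again. Size under these conditions: about 34,000 compounds, about 280 of them at 50% or above in at least one test.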

Each number is a percent effect as filed.
The controls that fix the scale are not given in the record; negative values are as filed.
This is an unselected part of the compounds tested.
Two or more numbers in one place are separate tests of the same structure; such repeats can differ widely.

| Compound | Percent Effect |
|---|---|
| `[H][C@@]12CCC(=O)N(CCc3c[nH]cn3)[C@]1([H])CCN(Cc1ccc(Cl)s1)C2` | -6.08 |
| `CC(C)Sc1ccc(C(C)NC(=O)CNS(C)(=O)=O)cc1` (stereo unspecified) | 3.226 |
| `Cn1ccnc1CN1CCN(Cc2ccc(C#N)cc2F)CC1` | 11.17 |
| `O=C(Nc1nncs1)NC1CCN(Cc2ccccc2)C1` (stereo unspecified) | 8.759 |
| `O=C(CC1CC2(CCN(CC3CC3)CC2)c2ccccc21)NC1CCC1.O=C(O)C(F)(F)F` (stereo unspecified) | -9.282 |
| `Cc1cc2c(=O)n3c(nc2s1)CCN(Cc1c[nH]cn1)CC3.Cl` | 1.966 |
| `CCCNC(=O)CNC(=O)CCc1ccccc1Br` | -7.167 |
| `O=C(Cc1nc(-c2ccncc2)n[nH]1)NCCCN1CCOCC1` | -0.3581 |
| `Cc1c[nH]nc1C1CCCN(C(=O)c2c(C)noc2C)C1` (stereo unspecified) | 11.21 |
| `CC(=O)N1CCC(=O)N(C2CCCC2)Cc2ccccc21` | 27.52 |
| `NC(=O)CN1CCCC(Cc2ccc(N)nn2)C1` (stereo unspecified) | 10.46 |
| `Cc1cc(C)n(C2CN(CC(=O)N(C)Cc3ccco3)C2)n1` | -20.34 |
| `CCc1nnc2n1CCN(C(=O)COCCc1ccccc1)C2` | 1.711 |
| `NC(=O)c1cccc(OCC(=O)NS(=O)(=O)c2ccc3c(c2)CCC3)c1` | 0.09769 |
| `O=S(=O)(c1cn[nH]c1)N1CCC(O)(CN2CCOCC2)C1` (stereo unspecified) | 10.65 |
| `NC(=O)C1CCCN1Cc1cccc(NC(=O)c2ccc(Cl)cc2F)c1` (stereo unspecified) | -16.42 |
| `Cc1ccc(-n2nnnc2C2(NCc3ccco3)CCCC2)cc1` | -2.744 |
| `CCCN1CCC(CNC(=O)C2(c3cc(C)cc(C)c3)CCC2)C1` (stereo unspecified) | -3.073 |
| `O=C1CCOC[C@]2(CN(Cc3ccccc3)C[C@H]2c2cccc(F)c2)N1` | -51.05 |
| `CCNc1cc2c(nn1)CCN(C(=O)c1cccnc1N(C)C)C2` | 8.176 |
| `CNC(=O)CCc1cc(C2CCN(c3cnccn3)CC2)nc(C)n1` | -5.568 |
| `CN(Cc1ccc(F)cc1)C(=O)NCC1(N2CCOCC2)CCSC1` (stereo unspecified) | 2.235 |
| `CCC(=O)N1CCC2(CC1)CC(CC(=O)NC1CC1)c1ccccc1O2` (stereo unspecified) | 4.291 |
| `O=C(O)C(F)(F)F.O=C(O)C(F)(F)F.[H][C@]12CCC[C@@]1(COc1cccnc1)CN(C1CCOCC1)C2` | 9.846 |
| `CN(Cc1ccc([S+](C)[O-])cc1)c1cncc(Br)c1` (stereo unspecified) | 1.253 |
| `COc1ccc(N2CCC(N(C)C(C)C(=O)N(C)C)CC2)cc1` (stereo unspecified) | -8.703 |
| `O=C(O)C(F)(F)F.O=C(c1cccnc1)N1CCC2(CCN(C(=O)N3CCCC3)CC2)C1` | 8.509 |
| `CC(C)c1nccn1CCn1cnc2ccsc2c1=O` | 6.4 |
| `Cc1cc(C)nc(C2CCN(C(=O)CO)CC2)n1` | -1.878 |
| `Cc1ccc(S(=O)(=O)Nc2ccc(-n3cccc3C(=O)O)c(C)c2)s1` | -25.14 |
| `COCC(=O)NCc1ccc(-c2ncncc2C(=O)N(C)C)cc1` | 9.945 |
| `CC(C(=O)NC(N)=O)N(C)CCCc1cc(-c2ccccc2)no1` (stereo unspecified) | -1.519 |
| `CS(=O)(=O)c1ccc(-c2cc(C3CC3)c(C#N)c(N)n2)cc1` | 1.298 |
| `O=C(O)C(F)(F)F.O=C(O)C(F)(F)F.[H][C@@]12CCCO[C@]1([H])[C@H](OC)CN2Cc1scnc1C` | -2.999 |
| `Cn1cc(C2CCCN2Cc2csc(-c3ccsc3)n2)cn1` (stereo unspecified) | -6.003 |
| `c1cnn(CCC2CCN(Cc3ccc4[nH]ccc4c3)CC2)c1` | 0.4386 |
| `CN(C)c1cc(CNC(=O)c2ccc(F)cc2F)ccn1` | -2.289 |
| `CC(C)(C)C(=O)N1CCCC1c1nc(O)cc(-c2ccccn2)n1` (stereo unspecified) | -15.05 |
| `CC(C)(O)CN1CCN(C(=O)c2cccc3[nH]ncc23)CC1` | 5.218 |
| `[H][C@@]12OCCN(C(=O)COc3ccc(F)cc3)[C@@]1([H])CC[C@@H]2OCC1CC1` | 8.509 |
| `CC(C)c1noc(-c2ccc(NCCCC3CCOC3)nc2)n1` (stereo unspecified) | 13.54 and 13.95 |
| `Cc1cnn(CCNCc2ccc(OCc3cscn3)cc2)c1` | -20.34 |
| `Cc1ncc(CNC2CCCN(Cc3noc(C4CC4)n3)C2)s1` (stereo unspecified) | 7.09 |
| `CC(C)(C)c1ncc(CNc2ccccc2Cn2cncn2)s1` | -8.565 |
| `Cc1cnn(CC2CCCCN2Cc2ncc(C(C)(C)C)o2)c1` (stereo unspecified) | 7.547 |
| `O=C(O)C(F)(F)F.O=C(O)C(F)(F)F.[H][C@]12CCN(Cc3cccs3)[C@@]1([H])CC[C@H](COCc1cccnc1)O2` | -3.345 |
| `CCCC(=O)N1CCc2nc3cc(OC)c(OC)cc3c(=O)n2CC1` | -10.04 |
| `Cc1noc(C)c1CN1CCn2cc(CN3CCOCC3)nc2C1` | 0.4281 |
| `CN(C)CC(=O)N1CCC2(CC1)CN(c1ccsc1)C(=O)CO2.O=C(O)C(F)(F)F` | -4.729 |
| `COc1cc2c(nn1)CCN(Cc1ncc(C(C)(C)C)o1)C2` | -9.212 |
| `Cc1nn(C)c(Cl)c1CNCc1ccc(OCC(N)=O)cc1` | -6.127 |
| `Cc1noc(CN2CCOC(CN(C)C)C2)n1` (stereo unspecified) | 18.46 and 5.616 and 19.13 |
| `Cc1cnn(CCNCC(O)COc2ccc(Cl)cc2)c1` (stereo unspecified) | -2.714 |
| `Cc1ccc(-c2cnn(CC(=O)NC(C)C)c2)cc1` | 5.997 |
| `c1coc(CN2CCC3(CC2)COC(COCC2CCOCC2)C3)c1` (stereo unspecified) | -0.613 |
| `O=C1NC(C(=O)NCc2cccnc2Oc2ccccc2F)CO1` (stereo unspecified) | -2.507 |
| `CC(=O)N1CCN(C(=O)C(C)Nc2ccc3ncsc3c2)CC1` (stereo unspecified) | 2.971 |
| `CCCn1c(O)nnc1SCC1OCCc2ccccc21` (stereo unspecified) | -3.429 |
| `Cc1noc(C)c1CN(C)C(=O)NC1CCN(c2ncccn2)CC1` | 15.14 |
| `O=C(c1ccccn1)N1CCC2(CC1)CN(c1cncnc1)C(=O)CO2` | 6.271 |
| `O=C(CN1CCS(=O)(=O)CC1)NCc1ccccc1F` | -11.31 |
| `CSC(C)(C)CNC(=O)NCCC1CCN(C)CC1` | 0.6438 |
| `Cc1ncc(CNC(=O)CCc2cccs2)c(C2CCCN2C)n1` (stereo unspecified) | 4.93 |
| `O=C(c1cccc(S(=O)(=O)NCCCc2ncc[nH]2)c1)N1CCOCC1` | -5.785 |
| `COCCNC(=O)C1(c2ccc(C)c(OC)c2)CCCC1` | -11.2 |
| `CC(=O)N1CCCC1c1cc(N2CCN(CC3CC3)CC2)cc(C)n1` (stereo unspecified) | 8.201 |
| `O=C(CC1CC1)N1CCn2cc(Cn3cncn3)nc2C1` | -4.134 |
| `COCCN1CCCC(O)(CN2CCN(Cc3ccncc3)CC2)C1=O` (stereo unspecified) | -7.607 |
| `[H][C@@]12CNC[C@]1([H])CN(C(=O)C1CCC1)C2` | 16.73 |
| `N#Cc1ccc(N2CCCN(CC(=O)N3CCOCC3)CC2)cc1` | 7.23 |
| `CN1N=C(C(=O)N2CCCC(n3cccn3)C2)CCC1=O` (stereo unspecified) | 3.477 |
| `CC(=O)N1CCC(c2cncc(N3CCC(O)C3)n2)CC1` (stereo unspecified) | 3.1 |
| `Cc1c[nH]nc1C1CN(c2cnccn2)CCO1` (stereo unspecified) | 4.403 |
| `CN(C)C1CCN(C(=O)Cc2csc(-c3ncccn3)n2)CC1` | 19.1 |

The last 8 entries again:

{"compound": "O=C(CC1CC1)N1CCn2cc(Cn3cncn3)nc2C1", "Percent Effect": -4.134}
{"compound": "COCCN1CCCC(O)(CN2CCN(Cc3ccncc3)CC2)C1=O", "stereo": "stereo unspecified", "Percent Effect": -7.607}
{"compound": "[H][C@@]12CNC[C@]1([H])CN(C(=O)C1CCC1)C2", "Percent Effect": 16.73}
{"compound": "N#Cc1ccc(N2CCCN(CC(=O)N3CCOCC3)CC2)cc1", "Percent Effect": 7.23}
{"compound": "CN1N=C(C(=O)N2CCCC(n3cccn3)C2)CCC1=O", "stereo": "stereo unspecified", "Percent Effect": 3.477}
{"compound": "CC(=O)N1CCC(c2cncc(N3CCC(O)C3)n2)CC1", "stereo": "stereo unspecified", "Percent Effect": 3.1}
{"compound": "Cc1c[nH]nc1C1CN(c2cnccn2)CCO1", "stereo": "stereo unspecified", "Percent Effect": 4.403}
{"compound": "CN(C)C1CCN(C(=O)Cc2csc(-c3ncccn3)n2)CC1", "Percent Effect": 19.1}

The values are deposited in ChEMBL (CHEMBL3988442, “University of Dundee, Small-Polar-MMV Screening Library” (2021)).